Measurements from PMC7862700.
Only a part is listed here, and it is no random draw. For some assays here: At the low end of the ranking, values are background and their order means little.

The chains behind the UniProt entries cited, without tags or fusion partners. Where a name states a change or a piece, a line headed by the entry shows the natural chain unless it says otherwise.
UniProt P41212: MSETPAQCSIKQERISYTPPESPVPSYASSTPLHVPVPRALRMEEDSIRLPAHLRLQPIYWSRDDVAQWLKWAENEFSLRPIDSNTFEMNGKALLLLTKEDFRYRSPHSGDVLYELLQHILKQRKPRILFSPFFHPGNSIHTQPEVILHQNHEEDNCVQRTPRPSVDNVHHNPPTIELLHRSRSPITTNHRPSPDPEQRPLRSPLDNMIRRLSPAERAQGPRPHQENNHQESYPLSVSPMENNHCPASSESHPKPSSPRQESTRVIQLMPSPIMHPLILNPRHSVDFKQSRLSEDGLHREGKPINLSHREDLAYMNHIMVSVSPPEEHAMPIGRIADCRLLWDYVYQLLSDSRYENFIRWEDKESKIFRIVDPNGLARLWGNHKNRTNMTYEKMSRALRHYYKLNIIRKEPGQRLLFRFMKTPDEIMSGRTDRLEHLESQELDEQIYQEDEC
UniProt Q9Y603: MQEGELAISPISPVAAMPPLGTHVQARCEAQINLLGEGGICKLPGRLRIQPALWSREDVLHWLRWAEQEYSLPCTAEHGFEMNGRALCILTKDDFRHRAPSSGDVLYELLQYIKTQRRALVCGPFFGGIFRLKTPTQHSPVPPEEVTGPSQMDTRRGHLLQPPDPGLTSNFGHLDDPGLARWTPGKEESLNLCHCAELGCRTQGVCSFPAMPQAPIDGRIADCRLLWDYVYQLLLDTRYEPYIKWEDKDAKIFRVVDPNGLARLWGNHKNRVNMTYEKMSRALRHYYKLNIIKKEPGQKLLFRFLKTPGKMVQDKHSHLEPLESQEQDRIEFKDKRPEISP

Columns and labels:
Assay in all cases: DAPPL (digital affinity profiling via proximity ligation, sequencing)
Conditions in all cases: 10 mM Tris-HCl pH 7.5, 50 mM NaCl, 1 mM DTT, 4% glycerol, room temperature, 30 min; GST-TFs on glutathione beads, 16-mer random dsDNA library, 0.1% …; high values mean tight binding; double strand, one strand shown; scale: fold enrichment (6-mer frequency, TF over GST control)
ELF3 = target: T1, ELF3 (UniProt P78545)
T1 sequence: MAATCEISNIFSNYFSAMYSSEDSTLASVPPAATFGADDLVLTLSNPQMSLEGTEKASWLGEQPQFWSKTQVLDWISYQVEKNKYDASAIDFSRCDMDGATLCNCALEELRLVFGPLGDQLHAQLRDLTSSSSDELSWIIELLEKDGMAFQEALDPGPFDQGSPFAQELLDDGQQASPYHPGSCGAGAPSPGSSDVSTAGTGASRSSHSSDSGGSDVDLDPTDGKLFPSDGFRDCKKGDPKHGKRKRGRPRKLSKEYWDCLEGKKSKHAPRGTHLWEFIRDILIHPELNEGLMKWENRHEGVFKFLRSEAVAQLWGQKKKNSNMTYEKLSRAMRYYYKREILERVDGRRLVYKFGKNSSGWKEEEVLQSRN

ETV6 = ETV6 (UniProt P41212)
ETV7 = ETV7 (UniProt Q9Y603)

Sequence | binding signal (ELF3) | binding signal (ETV6) | binding signal (ETV7)
CTATCC | 1.31 | 1.32 | 
TAACGC | 1.17 | 1.17 | 
ACGCCG | 1.15 | 1.14 | 
TAGCAG | 0.945 | 0.995 | 
CGCTTG | 1.2 | 1.11 | 
AACTCT | 1.44 | 1.33 | 
ACGAAG | 0.883 | 0.932 | 
TTTCAT | 1.11 | 1.13 | 
CCCCAA | 1.24 | 1.14 | 
AACAGA | 0.949 | 0.941 | 
TCATCT | 1.37 | 1.22 | 
CGGCTG | 0.921 | 0.939 | 
CGAAGT | 0.924 | 0.868 | 
ATCGCG | 0.856 | 0.932 | 
AGTACT | 1.29 | 1.62 | 
GTTGTA | 1.04 | 0.983 | 
CTCAGC | 1.2 | 1.2 | 
CAGCAT | 1.07 | 0.939 | 
TAGGCA | 1 | 0.926 | 
TTGGCT | 0.956 | 1.13 | 
GCGAAA | 0.953 | 0.931 | 
AATCCT | 1.25 | 1.29 | 
TATACA | 1.43 | 1.25 | 
GGCTTG | 1.11 | 0.9 | 

Sequence | binding signal (ELF3) | binding signal (ETV6) | binding signal (ETV7)
AGGCCC | 0.833 | 0.924 | 
GCATAC | 0.867 | 0.894 | 
CAATAC | 1.29 | 1.22 | 
CGCGTA | 0.976 | 1.01 | 
TCATGA | 1 | 0.995 | 
ATTAAA | 1.05 | 1.18 | 
GGACTT | 1.06 | 1.13 | 
GTAAAT | 1.25 | 1.18 | 
ACCTGT | 0.853 | 0.959 | 
CGGCCT | 1.03 | 0.96 | 
CTGATG | 1.65 | 1.72 | 
CTCTTA | 1.27 | 1.39 | 
TGGTGC | 0.907 | 0.987 | 
GCGACA | 0.963 | 1.04 | 
AGTGCT | 1.02 | 1.52 | 
GTCTTG | 0.979 | 0.912 | 
AATTTC | 1.75 | 1.94 | 
AGTGGC | 1.36 | 1.27 | 
CAACTC | 1.24 | 1.29 | 
CCGGGT | 1.12 | 1.21 | 
ATAGAC | 0.966 | 0.943 | 
GCCTAG | 0.841 | 0.875 | 
AGAAAA | 0.871 | 0.967 | 
ACAAAG | 0.912 | 0.961 | 

Sequence | binding signal (ELF3) | binding signal (ETV6) | binding signal (ETV7)
CGCACG | 0.939 | 1.08 | 
GCTAAC | 0.982 | 0.948 | 
TCTGAG | 0.884 | 0.871 | 
GTGGCC | 1.09 | 1.1 | 
TCGTCT | 1.52 | 1.34 | 
TAAGCA | 0.958 | 0.986 | 
CGGCCC | 0.89 | 0.905 | 
GCGAAC | 0.845 | 0.917 | 
TAGCGT | 0.833 | 0.919 | 
CATAGT | 1.07 | 0.968 | 
TAGACT | 0.897 | 0.898 | 
GTCCAA | 0.941 | 0.923 | 
TGTATG | 1.19 | 1.16 | 
AATCTG | 1.47 | 1.4 | 
AGCACA | 0.929 | 1.11 | 
AGATGA | 0.959 | 1.13 | 
CATGGC | 0.923 | 1 | 
TACTCC | 1.11 | 1.23 | 
CGAGAA | 0.851 | 0.918 | 
AAGCCG | 0.935 | 0.916 | 
CTCCGT | 1.13 | 1.16 | 
ACTGGA | 1.1 | 0.982 | 
GCGCGC | 1.05 | 1.03 | 
TTTTTT | 1.33 | 1.11 | 

Sequence | binding signal (ELF3) | binding signal (ETV6) | binding signal (ETV7)
TCGATA | 0.998 | 1.01 | 
GATCTA | 1.07 | 0.947 | 
CAAAGT | 0.822 | 0.897 | 
CAGCCT | 0.953 | 0.847 | 
ACAGCA | 0.984 | 0.999 | 
CCTGTA | 1.09 | 1.18 | 
TCGGCT | 0.917 | 0.936 | 
CAGAAA | 0.982 | 0.921 | 
AACGAT | 1.08 | 1.25 | 
TCGCAT | 0.981 | 0.989 | 
ACACCG | 0.987 | 0.984 | 
GTCATT | 0.978 | 0.99 | 
ACCCCA | 1.04 | 1.02 | 
AGTTGC | 0.831 | 1.03 | 
ATGCGT | 1.07 | 0.979 | 
ATAACA | 1.21 | 1.26 | 
ATAATA | 1.15 | 1.2 | 
ACCCTG | 0.914 | 1.07 | 
CGACAG | 0.999 | 0.875 | 
GCATTT | 1.33 | 1.39 | 
CATTGA | 0.843 | 0.927 | 
GGCTGC | 0.755 | 0.89 | 
TCTGGC | 1.03 | 1.19 | 
TGATAA | 0.792 | 0.934 | 

Single values from the entries so far:
binding signal (ETV6) with ATCGCG reads 0.932
binding signal (ELF3) with GCATAC reads 0.867
binding signal (ELF3) with CAAAGT reads 0.822
binding signal (ELF3) with CAGCAT reads 1.07
binding signal (ELF3) with TAGCAG reads 0.945
binding signal (ETV6) with TCGATA reads 1.01
binding signal (ETV6) with GGACTT reads 1.13

More results

Sequence | binding signal (ELF3) | binding signal (ETV6) | binding signal (ETV7)
AAGGCC | 0.961 | 0.915 | 
ATCGCA | 0.965 | 0.974 | 
GCTAGA | 0.984 | 0.993 | 
ATAGGG | 0.988 | 0.93 | 
TCAACG | 0.996 | 0.974 | 
CGACGG | 0.931 | 1.03 | 
AGTGAC | 0.929 | 1.11 | 
CGCTGG | 0.967 | 0.972 | 
ACACGG | 1.06 | 1.06 | 
GCAGCC | 0.992 | 0.851 | 
GTCTAT | 1.12 | 1.03 | 
CAGAAC | 0.97 | 0.91 | 
TGGAAG | 0.892 | 1.19 | 
GTCTAA | 0.992 | 0.947 | 
AGTTTT | 1.01 | 0.984 | 
ATTGGT | 1.14 | 1.13 | 
GGTGGT | 0.847 | 0.91 | 
CACCCA | 1.14 | 0.993 | 
CCCCGA |  |  | 1.06
TTCTAC |  | 1.49 | 1.54
CTACCG |  | 1.53 | 1.54
AGCAAT |  |  | 1.25
AACAAC |  |  | 1.3
CTCACG |  |  | 1.25
